In the supplement of paper PMC10735217:
Values joined by “and” are separate entries in the source; they are usually repeats but may differ in a detail not shown here. Equal entries are not always repeated. Structures can show the parent of a compound that is named as a salt. The list shows a part of the results. Repeats in this data set agree poorly, so a single value says little.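 Human kidney-derived cells stably carry a construct in which eight TEAD-binding elements drive luciferase, measured by luminescence in a drug-repurposing library screen. A hit is any compound whose signal exceeds the plate mean by more than five robust Z scores.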

Tested on: HEK293A TEAD-LUC reporter
Assay: TEAD-luciferase reporter activity (YAP activation), robust Z score vs plate; higher = stronger YAP/TEAD activation
Settings: 24 h

| Structure (SMILES) | TEAD-luciferase reporter activity (compound concentration: 200 nM) | TEAD-luciferase reporter activity (compound concentration: 10 uM) | TEAD-luciferase reporter activity (compound concentration: 2 uM) |
| --- | --- | --- | --- |
| CC[C@H]1OC(=O)[C@H](C)[C@@H](O[C@H]2C[C@@](C)(OC)[C@@H](O)[C@H](C)O2)[C@H](C)[C@@H](O[C@@H]2O[C@H](C)C[C@H](N(C)C)[C@H]2O)[C@@]2(C)CC(C)=C(O2)[C@H](C)[C@@H](O)[C@]1(C)O [Erythromycin A enol ether] | inactive: 0.865 | inactive: -0.391 |  |
| CC[C@H]1OC(=O)[C@H](C)[C@@H](O[C@H]2C[C@@](C)(OC)[C@@H](O)[C@H](C)O2)[C@H](C)[C@@H](O[C@@H]2O[C@H](C)C[C@H](N(C)C)[C@H]2O)[C@@]2(C)CC(C)=C(O2)[C@H](C)[C@@H](O)[C@]1(C)O |  |  | inactive: 0.202 |
| CCC(=O)c1ccc2c(c1)N(CCCN(C)C)c1ccccc1S2 [Propionylpromazine] | inactive: -1.33 | inactive: 2.09 |  |
| CCC(=O)c1ccc2c(c1)N(CCCN(C)C)c1ccccc1S2 |  |  | inactive: 0.396 |
| CCCCCCCCCCCCCCCCCC(O)c1ccc(C(=O)O)c(Cl)c1 (centres undefined) [lodelaben] | inactive: -1.43 | inactive: 2.39 | inactive: 2.48 |
| CN(C)[C@@H]1C(O)=C(C(N)=O)C(=O)C2(O)C(O)=C3C(=O)c4c(ccc(N)c4O)C[C@H]3C[C@@H]12 (some centres undefined) | inactive: -1.43 | inactive: 2.49 |  |
| Nc1c2c(nc3c1CCCC3)CCCC2 [Octahydrogenacridine succinate] | inactive: -0.523 | inactive: 2.83 | inactive: -0.786 |
| C=COCC(F)(F)F | inactive: 0.08 | inactive: 0.429 | inactive: 2.51 |
| CCCCCCCN(CC)CCCC(O)c1ccc(NS(C)(=O)=O)cc1 (centres undefined) [Ibutilide Fumarate] | inactive: -0.815 | inactive: -0.675 |  |
| CCCCCCCN(CC)CCCC(O)c1ccc(NS(C)(=O)=O)cc1 (centres undefined) [Ibutilide Fumarate_:_2016-03-02: ibutilide fumarate] |  |  | inactive: -0.624 |
| O=C1Nc2ccccc2/C1=C1/Nc2ccccc2C1=O | inactive: -0.641 | inactive: 2.68 |  |
| O=C1Nc2ccccc2/C1=C1/Nc2ccccc2C1=O [indirubin] |  |  | inactive: 1.94 |
| O=C(/C=C/c1ccc2c(c1)OCO2)OCc1cc(=O)c(O)co1 | inactive: -0.0787 | inactive: 1.62 | inactive: -0.787 |
| CC(C)NCC(O)c1ccc(O)c2ncccc12 (centres undefined) | inactive: -0.307 | inactive: -0.427 | inactive: -0.81 |
| CCOC(=O)c1ccc(NC(=O)CC)cc1NC(=O)c1ccc(C(=O)O)cc1 | inactive: 0.182 | inactive: -0.0429 | inactive: 1.33 and inactive: -0.723 |
| CC(C)(C)C(=O)OCOP(=O)(OCOC(=O)C(C)(C)C)C(CCCc1cccc(Oc2ccccc2)c1)S(=O)(=O)O (centres undefined) | inactive: -2.26 | inactive: 2.89 | inactive: 3.35 |
| CCNCc1c(CSC)cnc(C)c1O | inactive: 2.65 | inactive: -0.636 | inactive: 1.01 |
| CC(COc1ccccc1Cc1ccccc1)N1CCCCC1 (centres undefined) | inactive: 0.873 | inactive: 2.46 |  |
| CC(COc1ccccc1Cc1ccccc1)N1CCCCC1 (centres undefined) [benproperine] |  |  | inactive: 0.395 |
| CN(O)C(=O)CCc1ccc2c(c1)Cc1ccccc1CO2 | inactive: -0.0363 | inactive: -0.743 | inactive: 0.995 |
| C=CCc1ccc(O)c(OC)c1 [Eugenol] | inactive: 0.247 | inactive: -0.00285 | inactive: 0.765 |
| Cc1ccccc1C(=O)N1CC/C(=N/OS(=O)(=O)[O-])c2ccc(Cl)cc21 [Alilusem potassium] | inactive: 0.00971 | inactive: 1.22 | inactive: -1.29 |
| CC(C)Oc1ccc(S(=O)(=O)N2CCN(c3ccc(-c4ncco4)c(OCC(=O)O)c3)CC2)cc1 [Asapiprant] | inactive: -1.19 | inactive: -1.4 | inactive: -0.666 |
| CC(C)(CCn1c(=O)[nH]c2ccccc21)NCC(O)COc1cccc2ccccc12 (centres undefined) [adimolol] | inactive: -0.571 | inactive: 0.00666 | inactive: -0.124 |
| OCCOCCN1CCN(C2=Nc3ccccc3Sc3ccccc32)CC1 [quetiapine fumarate] |  |  | inactive: -2.25 |
| OCCOCCN1CCN(C2=Nc3ccccc3Sc3ccccc32)CC1 | inactive: -1.35 | inactive: -1.17 |  |

Complete entries from above:
C=CCc1ccc(O)c(OC)c1 [Eugenol] in the list: TEAD-luciferase reporter activity (compound concentration: 200 nM): inactive: 0.247; TEAD-luciferase reporter activity (compound concentration: 10 uM): inactive: -0.00285; TEAD-luciferase reporter activity (compound concentration: 2 uM): inactive: 0.765
CC(COc1ccccc1Cc1ccccc1)N1CCCCC1 (centres undefined) in the list: TEAD-luciferase reporter activity (compound concentration: 200 nM): inactive: 0.873; TEAD-luciferase reporter activity (compound concentration: 10 uM): inactive: 2.46

Following part

| Structure (SMILES) | TEAD-luciferase reporter activity (compound concentration: 200 nM) | TEAD-luciferase reporter activity (compound concentration: 10 uM) | TEAD-luciferase reporter activity (compound concentration: 2 uM) |
| --- | --- | --- | --- |
| COc1ccnc(CSc2nc3cc4c(cc3[nH]2)C(C)(C)C(=O)C4(C)C)c1C | inactive: 0.698 | inactive: 1.9 | inactive: -0.267 |
| C/C=C/C[C@@H](C)[C@@H](O)[C@H]1C(=O)N[C@@H](CCC)C(=O)N(C)CC(=O)N(C)[C@@H](CC(C)C)C(=O)N[C@@H](C(C)C)C(=O)N(C)[C@@H](CC(C)C)C(=O)N[C@@H](C)C(=O)N[C@H](C)C(=O)N(C)[C@@H](CC(C)C)C(=O)N(C)[C@@H](CC(C)C)C(=O)N(C)[C@@H](C(C)C)C(=O)N1C [Geclosporin] | inactive: -0.774 | inactive: 2.72 | inactive: 0.199 |
| Cn1c([N+](=O)[O-])cnc1/C=N/N1CC(CN2CCOCC2)OC1=O (centres undefined) [moxnidazole] | active: 5.9 | inactive: -0.178 | inactive: -0.305 |
| CCc1cc(CCc2nc3ccccc3o2)c(=O)[nH]c1C | inactive: -1.09 | inactive: -0.153 | inactive: 0.183 |
| CCC(=O)[C@@]1(C)[C@H](C)C[C@H]2[C@@H]3CCC4=CC(=O)C=CC4(C)[C@H]3[C@@H](O)CC21C (some centres undefined) [Rimexolone] | inactive: 0.165 | inactive: 2.51 | inactive: 1.51 |
| C=C(N)NCCCC[C@H](N)C(=O)O | inactive: -0.468 | inactive: -0.751 | inactive: -0.771 |
| O=C(CCNNC(=O)c1ccncc1)NCc1ccccc1 [N-benzyl-3-(2-isonicotinoylhydrazino)propanamide] | inactive: -1.13 | active: 6.49 |  |
| O=C(CCNNC(=O)c1ccncc1)NCc1ccccc1 |  |  | inactive: -0.236 |
| Cc1c(C(=O)NN2CCOCC2)nn(-c2ccc(Cl)cc2Cl)c1-c1ccc(I)cc1 | inactive: 0.0487 | inactive: -1.13 | inactive: -1.16 |
| C[C@H]1CN(c2cccc(Cl)c2)CCN1CCCn1nc2ccccn2c1=O | inactive: 0.121 | inactive: 0.297 | inactive: -0.241 |
| CNC(=O)c1cc(Oc2ccc(NC(=O)Nc3ccc(Cl)c(C(F)(F)F)c3)c(F)c2)ccn1 [Regorafenib] | inactive: -0.101 | inactive: 3.49 | inactive: -1.86 |
| CCC(CC)O[C@@H]1C=C(C(=O)O)C[C@H](N)[C@H]1NC(C)=O [Oseltamivir carboxylate] |  |  | inactive: -0.861 |
| CCC(CC)O[C@@H]1C=C(C(=O)O)C[C@H](N)[C@H]1NC(C)=O [Oseltamivir Acid Hydrochloride] |  |  | inactive: -0.216 |
| O=C(O)C(Cc1c[nH]c2ccccc12)NS(=O)(=O)c1cccs1 (centres undefined) [N-(2-thienylsulfonyl)tryptophan] | inactive: -0.887 | inactive: -0.508 | inactive: -1.54 |
| CN(C)C(C(=O)Nc1ccc2c(=O)[nH]ccc2c1)c1ccsc1 (centres undefined) [Verosudil] | inactive: -0.116 | inactive: 0.73 | inactive: 0.964 |
| CCCCCCCCCCCCCCCCCC(=O)NCCCC[C@H](NC(=O)CC[C@@H](NC(=O)[C@H](C)NC(=O)[C@@H](C)O[C@H]1[C@H](O)[C@@H](CO)OC(O)[C@@H]1NC(C)=O)C(N)=O)C(=O)O (some centres undefined) [Romurtide] | inactive: -1.32 | inactive: 0.826 | inactive: -0.973 |
| CCC(=O)[O-] | inactive: -0.413 | inactive: 0.822 | inactive: 0.258 |
| C/C=C(/C(=C/C)c1ccc(O)cc1)c1ccc(O)cc1 | inactive: -0.194 | inactive: -0.0288 | inactive: -1.12 |
| COC[C@]1(OC)CC[C@H]2[C@@H]3CCC4=CC(=O)CCC4=C3[C@@H](c3ccc(/C=N/O)cc3)C[C@@]21C [Asoprisnil] | inactive: -1.29 | inactive: 3.76 | inactive: -0.723 |
| C[C@H]1O[C@@H](O[C@H]2[C@@H](O)C[C@H](O[C@H]3[C@@H](O)C[C@H](O[C@H]4CC[C@@]5(C)[C@H](CC[C@@H]6[C@@H]5CC[C@]5(C)[C@@H](C7=CC(=O)OC7)CC[C@]65O)C4)O[C@@H]3C)O[C@@H]2C)C[C@H](O)[C@@H]1O [Digitoxin] |  |  | inactive: -2.19 |
| C[C@H]1O[C@@H](O[C@H]2[C@@H](O)C[C@H](O[C@H]3[C@@H](O)C[C@H](O[C@H]4CC[C@@]5(C)[C@H](CC[C@@H]6[C@@H]5CC[C@]5(C)[C@@H](C7=CC(=O)OC7)CC[C@]65O)C4)O[C@@H]3C)O[C@@H]2C)C[C@H](O)[C@@H]1O | active: 39 | active: 6.99 |  |
| C[C@H](CO)NC(=O)c1cccc(/C=C/CCCC(=O)N(C)C)c1 | inactive: -0.993 | inactive: 1.18 | inactive: -0.192 |
| C=CCn1c(=O)n([C@@H]2O[C@H](CO)[C@@H](O)[C@H]2O)c2nc(N)nc(O)c21 [Loxoribine] | inactive: 0.0692 | inactive: -0.264 | inactive: 0.41 |
| CCn1c(-c2nonc2N)nc2c(C#CC(C)(C)O)ncc(OC[C@H]3CCCNC3)c21 | inactive: -0.242 | active: 24.5 | active: 21 |
| NC(=O)c1ccc([N+](=O)[O-])cc1Cl | inactive: -0.661 | inactive: -1.05 |  |
| NC(=O)c1ccc([N+](=O)[O-])cc1Cl [Aklomide] |  |  | inactive: -0.686 |

Some values from above.
TEAD-luciferase reporter activity (compound concentration: 2 uM) with CCC(CC)O[C@@H]1C=C(C(=O)O)C[C@H](N)[C@H]1NC(C)=O [Oseltamivir carboxylate] reads inactive: -0.861
TEAD-luciferase reporter activity (compound concentration: 200 nM) with NC(=O)c1ccc([N+](=O)[O-])cc1Cl reads inactive: -0.661
